# Results as given in article PMC6886185.
# The chains behind the UniProt entries cited, without tags or fusion partners. Where a name states a change or a piece, a line headed by the entry shows the natural chain unless it says otherwise. A line that says so, or that is headed by a name, gives the form on record, which may keep a tag or linker. Residues count along the entry.
# UniProt Q14240: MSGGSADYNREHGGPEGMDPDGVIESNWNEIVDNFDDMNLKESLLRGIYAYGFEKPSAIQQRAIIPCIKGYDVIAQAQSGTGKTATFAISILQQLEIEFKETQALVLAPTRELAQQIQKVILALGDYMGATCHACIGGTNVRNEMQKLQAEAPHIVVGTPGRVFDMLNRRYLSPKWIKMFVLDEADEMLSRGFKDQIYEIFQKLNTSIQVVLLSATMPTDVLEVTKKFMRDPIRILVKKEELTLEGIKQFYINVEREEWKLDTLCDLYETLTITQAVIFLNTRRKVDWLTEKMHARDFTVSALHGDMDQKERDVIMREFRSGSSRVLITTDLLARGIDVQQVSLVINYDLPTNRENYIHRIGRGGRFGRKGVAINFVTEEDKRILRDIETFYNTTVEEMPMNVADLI
# 4A2Δ1-13: residues 14-407 of Q14240
# Flag-eIF4A2 7xM (Q14240, form named): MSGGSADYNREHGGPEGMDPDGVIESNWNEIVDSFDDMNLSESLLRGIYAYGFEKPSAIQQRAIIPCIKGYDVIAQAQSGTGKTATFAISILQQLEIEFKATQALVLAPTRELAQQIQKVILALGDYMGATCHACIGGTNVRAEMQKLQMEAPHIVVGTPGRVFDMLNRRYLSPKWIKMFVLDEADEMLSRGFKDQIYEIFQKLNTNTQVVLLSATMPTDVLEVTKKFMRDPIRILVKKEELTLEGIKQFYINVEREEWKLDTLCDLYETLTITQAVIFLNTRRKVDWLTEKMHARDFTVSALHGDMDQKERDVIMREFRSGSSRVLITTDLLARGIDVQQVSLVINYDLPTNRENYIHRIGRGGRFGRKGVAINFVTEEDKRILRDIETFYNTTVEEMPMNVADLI
# UniProt A5YKK6: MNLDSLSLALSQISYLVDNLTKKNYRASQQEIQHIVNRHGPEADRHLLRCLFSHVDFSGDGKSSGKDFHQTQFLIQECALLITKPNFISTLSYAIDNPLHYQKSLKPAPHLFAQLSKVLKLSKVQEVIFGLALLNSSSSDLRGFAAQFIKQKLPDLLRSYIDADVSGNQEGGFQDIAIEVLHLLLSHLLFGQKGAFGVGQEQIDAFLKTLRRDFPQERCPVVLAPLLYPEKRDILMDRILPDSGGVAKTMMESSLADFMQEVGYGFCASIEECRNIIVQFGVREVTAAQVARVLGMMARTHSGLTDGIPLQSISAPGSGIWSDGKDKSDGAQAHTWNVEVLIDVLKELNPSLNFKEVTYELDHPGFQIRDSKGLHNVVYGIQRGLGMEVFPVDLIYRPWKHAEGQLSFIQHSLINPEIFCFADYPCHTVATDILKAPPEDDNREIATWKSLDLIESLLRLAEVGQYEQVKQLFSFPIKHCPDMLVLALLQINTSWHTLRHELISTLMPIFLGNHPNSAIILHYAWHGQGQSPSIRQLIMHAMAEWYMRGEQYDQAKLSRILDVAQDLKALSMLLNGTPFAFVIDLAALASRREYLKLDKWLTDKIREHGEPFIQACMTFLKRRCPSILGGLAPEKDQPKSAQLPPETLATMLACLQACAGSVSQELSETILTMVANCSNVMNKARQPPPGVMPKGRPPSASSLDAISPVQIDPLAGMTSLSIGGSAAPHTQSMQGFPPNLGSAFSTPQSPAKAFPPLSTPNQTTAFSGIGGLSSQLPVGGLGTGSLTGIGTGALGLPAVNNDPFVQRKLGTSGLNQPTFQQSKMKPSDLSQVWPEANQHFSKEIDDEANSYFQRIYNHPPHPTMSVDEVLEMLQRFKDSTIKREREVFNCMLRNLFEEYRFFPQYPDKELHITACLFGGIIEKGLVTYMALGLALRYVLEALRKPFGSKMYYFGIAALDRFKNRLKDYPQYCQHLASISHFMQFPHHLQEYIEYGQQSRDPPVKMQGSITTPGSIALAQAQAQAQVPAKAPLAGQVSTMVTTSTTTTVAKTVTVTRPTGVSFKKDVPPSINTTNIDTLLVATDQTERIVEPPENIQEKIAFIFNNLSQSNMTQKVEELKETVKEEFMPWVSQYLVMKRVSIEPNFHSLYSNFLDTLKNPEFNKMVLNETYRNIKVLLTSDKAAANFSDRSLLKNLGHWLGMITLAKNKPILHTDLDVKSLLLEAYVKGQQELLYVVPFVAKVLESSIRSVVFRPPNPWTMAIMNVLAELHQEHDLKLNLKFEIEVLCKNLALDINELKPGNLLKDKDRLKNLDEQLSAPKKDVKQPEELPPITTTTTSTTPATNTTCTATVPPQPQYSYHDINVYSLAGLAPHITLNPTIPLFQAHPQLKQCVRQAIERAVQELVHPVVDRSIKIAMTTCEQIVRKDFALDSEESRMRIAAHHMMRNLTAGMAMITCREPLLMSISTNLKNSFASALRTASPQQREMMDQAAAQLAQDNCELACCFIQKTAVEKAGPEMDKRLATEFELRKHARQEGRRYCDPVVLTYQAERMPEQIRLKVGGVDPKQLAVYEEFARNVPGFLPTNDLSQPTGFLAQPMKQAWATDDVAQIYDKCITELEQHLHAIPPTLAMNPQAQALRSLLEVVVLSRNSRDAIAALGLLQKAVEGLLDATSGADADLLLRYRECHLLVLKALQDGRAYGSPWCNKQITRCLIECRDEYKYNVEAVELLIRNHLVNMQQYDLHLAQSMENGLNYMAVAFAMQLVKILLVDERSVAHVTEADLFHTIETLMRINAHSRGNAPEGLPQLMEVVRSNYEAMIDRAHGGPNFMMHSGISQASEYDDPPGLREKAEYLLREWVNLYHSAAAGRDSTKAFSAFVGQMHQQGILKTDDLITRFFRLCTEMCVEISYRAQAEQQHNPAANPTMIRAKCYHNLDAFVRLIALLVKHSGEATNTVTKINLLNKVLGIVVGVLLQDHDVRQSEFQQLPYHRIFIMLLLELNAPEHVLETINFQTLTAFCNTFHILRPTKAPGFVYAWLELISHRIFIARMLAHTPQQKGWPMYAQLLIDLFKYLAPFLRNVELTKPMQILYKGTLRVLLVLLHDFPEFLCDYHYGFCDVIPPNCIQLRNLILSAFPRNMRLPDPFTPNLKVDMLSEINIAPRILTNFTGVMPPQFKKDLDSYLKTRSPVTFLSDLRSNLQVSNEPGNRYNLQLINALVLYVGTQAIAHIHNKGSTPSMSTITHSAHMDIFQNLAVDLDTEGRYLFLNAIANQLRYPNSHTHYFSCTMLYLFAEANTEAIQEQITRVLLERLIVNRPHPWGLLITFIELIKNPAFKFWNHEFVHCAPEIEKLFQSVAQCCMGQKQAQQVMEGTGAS
# UniProt Q9UIV1: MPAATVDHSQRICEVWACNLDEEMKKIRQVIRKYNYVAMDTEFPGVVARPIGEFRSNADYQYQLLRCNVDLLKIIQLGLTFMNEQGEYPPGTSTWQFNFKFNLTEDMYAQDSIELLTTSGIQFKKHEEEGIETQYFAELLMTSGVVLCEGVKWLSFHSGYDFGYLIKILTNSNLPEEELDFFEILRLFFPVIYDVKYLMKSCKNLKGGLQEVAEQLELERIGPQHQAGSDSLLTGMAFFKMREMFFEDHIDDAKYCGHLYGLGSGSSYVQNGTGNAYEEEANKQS
# UniProt Q04637: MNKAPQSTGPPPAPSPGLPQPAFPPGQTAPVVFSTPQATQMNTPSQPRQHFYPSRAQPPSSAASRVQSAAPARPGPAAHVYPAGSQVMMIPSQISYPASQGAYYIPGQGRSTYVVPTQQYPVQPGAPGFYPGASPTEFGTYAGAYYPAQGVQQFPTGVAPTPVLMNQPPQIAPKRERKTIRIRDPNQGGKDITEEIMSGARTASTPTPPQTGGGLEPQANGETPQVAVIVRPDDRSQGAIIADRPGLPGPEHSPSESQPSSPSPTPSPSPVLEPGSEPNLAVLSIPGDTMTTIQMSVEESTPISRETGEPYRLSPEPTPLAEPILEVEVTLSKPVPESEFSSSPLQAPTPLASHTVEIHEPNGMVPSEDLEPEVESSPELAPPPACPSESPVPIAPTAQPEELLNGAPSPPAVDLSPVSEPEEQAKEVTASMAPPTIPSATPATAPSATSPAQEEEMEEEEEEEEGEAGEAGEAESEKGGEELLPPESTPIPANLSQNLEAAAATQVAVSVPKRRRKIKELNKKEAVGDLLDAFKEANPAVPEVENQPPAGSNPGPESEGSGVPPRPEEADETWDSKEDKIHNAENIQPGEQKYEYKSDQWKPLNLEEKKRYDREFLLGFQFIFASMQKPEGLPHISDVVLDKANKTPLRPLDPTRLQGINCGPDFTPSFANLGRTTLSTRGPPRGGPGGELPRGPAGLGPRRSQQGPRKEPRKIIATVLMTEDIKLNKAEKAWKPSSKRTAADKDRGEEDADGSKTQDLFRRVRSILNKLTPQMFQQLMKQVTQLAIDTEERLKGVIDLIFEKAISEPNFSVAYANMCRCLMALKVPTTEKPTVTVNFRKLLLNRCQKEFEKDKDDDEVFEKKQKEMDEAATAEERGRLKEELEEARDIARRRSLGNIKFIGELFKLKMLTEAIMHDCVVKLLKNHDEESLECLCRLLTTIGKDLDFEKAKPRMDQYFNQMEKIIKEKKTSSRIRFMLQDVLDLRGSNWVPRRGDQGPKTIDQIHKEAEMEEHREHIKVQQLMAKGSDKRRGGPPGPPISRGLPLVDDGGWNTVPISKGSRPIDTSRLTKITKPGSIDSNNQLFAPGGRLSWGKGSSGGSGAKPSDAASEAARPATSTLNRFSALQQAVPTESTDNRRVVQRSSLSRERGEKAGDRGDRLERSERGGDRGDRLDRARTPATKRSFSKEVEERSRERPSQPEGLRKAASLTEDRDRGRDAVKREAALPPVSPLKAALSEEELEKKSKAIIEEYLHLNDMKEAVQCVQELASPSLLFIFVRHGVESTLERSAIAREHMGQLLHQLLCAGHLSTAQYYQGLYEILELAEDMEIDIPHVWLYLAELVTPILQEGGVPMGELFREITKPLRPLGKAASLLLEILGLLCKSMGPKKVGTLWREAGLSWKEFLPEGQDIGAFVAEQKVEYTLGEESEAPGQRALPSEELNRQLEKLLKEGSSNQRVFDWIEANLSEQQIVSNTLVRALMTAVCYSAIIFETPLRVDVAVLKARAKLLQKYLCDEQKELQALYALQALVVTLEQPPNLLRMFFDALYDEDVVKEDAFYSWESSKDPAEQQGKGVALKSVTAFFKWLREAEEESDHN
# Results are given in words; binding and its absence hold for the method and conditions named. Binding seen in cells or lysates may run through a third protein. Some entries that bind do so weakly or less than the wild type.
# Experiments:
# [1] = target: eIF4A2 (endogenous) (human (endogenous in HeLa)) (UniProt Q14240); assay: co-IP; IPs of endogenous proteins with and without RNaseA digestion; Western blot confirmation of selected LC-MS/MS hits
# [2] = target: eIF4A2 (endogenous) (human (endogenous in HeLa)) (UniProt Q14240); assay: co-IP; RNaseA-treated IPs of endogenous proteins from gel filtration fractions of HeLa cytoplasmic lysate enriched in CNOT1 and eIF4A2; 5% sucrose, 0.1% CHAPS, 20 mM HEPES/NaOH, 5 mM DTT, 50 mM NaCl, pH 7.0
# Flag-eIF4A2 [3] = target: Flag-eIF4A2 (UniProt Q14240); assay: co-IP; as a1, but at unphysiologically high levels of eIF4A2 overexpression (Figure S1D)
# Flag-eIF4A2 7xM = Flag-eIF4A2 7xM (UniProt Q14240); assay: co-IP; Flag immunoprecipitation of tagged proteins from transfected cells (HEK293, 48 h after transfection in Fig. 1b), elution with 200 ng/ul 3xFlag peptide; Western blot for endogenous eIF4G
# 4A2Δ1-13 = 4A2Δ1-13 (UniProt Q14240); assay: as above
# Flag-eIF4A2 [4] = target: Flag-eIF4A2 (UniProt Q14240); assay: as above
# [5] = target: CNOT1 (human (endogenous in HeLa)) (UniProt A5YKK6); assay: co-IP; RNaseA-treated IPs of endogenous proteins from gel filtration fractions of HeLa cytoplasmic lysate enriched in CNOT1 and eIF4A2; 5% sucrose, 0.1% CHAPS, 20 mM HEPES/NaOH, 5 mM DTT, 50 mM NaCl, pH 7.0
substance,measurement,setting,value
CNOT7 (from UniProt Q9UIV1 1-285),binding,[1],binds
CNOT1 (from UniProt A5YKK6 1-2376),binding,[1],binds
same,binding,[2],binds
eIF4G (from UniProt Q04637 1-1599),binding,Flag-eIF4A2 [3],binds
same,binding,Flag-eIF4A2 7xM,binds
same,binding,4A2Δ1-13,binds weakly
same,binding,Flag-eIF4A2 [4],binds weakly
eIF4A2 (endogenous) (from UniProt Q14240 1-407),binding,[5],binds
